Experimental data taken from PMC8294762.
Results are given in words; binding and its absence hold for the method and conditions named. Binding seen in cells or lysates may run through a third protein. Some binding calls cover weakened binding; strength is not graded here.

Protein sequences, listed by entry. Tags and fused reporters are not part of them.
UniProt P56959: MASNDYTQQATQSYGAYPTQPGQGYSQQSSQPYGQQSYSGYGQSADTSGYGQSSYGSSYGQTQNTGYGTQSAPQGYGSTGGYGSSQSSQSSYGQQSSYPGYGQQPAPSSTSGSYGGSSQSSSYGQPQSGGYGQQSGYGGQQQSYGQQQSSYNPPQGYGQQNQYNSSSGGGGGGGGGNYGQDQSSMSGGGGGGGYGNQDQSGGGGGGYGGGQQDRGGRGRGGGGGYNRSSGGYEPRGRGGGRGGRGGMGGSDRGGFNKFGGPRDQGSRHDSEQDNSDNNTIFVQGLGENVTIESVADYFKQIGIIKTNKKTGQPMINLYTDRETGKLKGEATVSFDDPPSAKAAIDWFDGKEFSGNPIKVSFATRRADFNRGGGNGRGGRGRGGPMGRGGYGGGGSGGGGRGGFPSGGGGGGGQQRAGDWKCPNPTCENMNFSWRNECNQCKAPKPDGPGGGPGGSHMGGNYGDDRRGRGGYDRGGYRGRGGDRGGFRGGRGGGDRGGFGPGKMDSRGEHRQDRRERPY
UniProt P97801: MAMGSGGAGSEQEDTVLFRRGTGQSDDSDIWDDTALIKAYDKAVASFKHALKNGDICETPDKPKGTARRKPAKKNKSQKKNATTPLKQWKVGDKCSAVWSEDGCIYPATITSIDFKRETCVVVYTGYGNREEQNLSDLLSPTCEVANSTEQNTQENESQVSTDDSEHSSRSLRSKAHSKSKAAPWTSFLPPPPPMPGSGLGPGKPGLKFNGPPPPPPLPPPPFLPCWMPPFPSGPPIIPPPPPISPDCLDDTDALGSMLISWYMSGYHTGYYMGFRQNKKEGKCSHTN

Target: wild-type FUS (FUsed in Sarcoma), mouse, endogenous (mouse (endogenous in embryonic brain)) (UniProt P56959)
Experiment: co-IP; E12.5-14.5 mouse brains homogenised in 20 mM HEPES pH 7.4, 150 mM NaCl, 10% glycerol; 1 mg lysate, 2 μg antibody or IgG control overnight, Protein A Sepharose; which protein was precipitated is not told

## Survival Motor Neuron (SMN), mouse, endogenous (from UniProt P97801 1-288)
  binding: binds
